Reference: PubChem BioAssay AID1347426 (Functional Genomics Laboratory (NCATS/FGL), 2020)
Screen size: about 31,000 sequences; about 1,400 (4.5%) were called active.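 Rule for the calls: active = median seed-adjusted z-score above 1 or below -1; inactive = the rest.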 Some of the results follow.

Experiment: Novel Modifiers of Survival Motor Neuron (SMN) Protein: Gene Identification via Genome-wide siRNA Screen;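 note: luminescence tracks full-length SMN protein made from the SMN2 reporter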
Conditions: HEK293T SMN2-luciferase reporter, siRNA knockdown, 72 h; actives lie on both sides
Outline: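 HEK293T cells stably expressing an SMN2 splicing/cDNA-luciferase reporter were reverse-transfected with a druggable-genome siRNA library and read by luminescence at 72 hours; hits defined by MAD score above 1.0 or below -1.0.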

Sequence	median seed-adjusted z-score
CAAGGUAUUAUGCAACGUATT against FLG	inactive: 0.221
GAGCCCUCCUGAUUUUGAATT against TERF2IP	inactive: 0.765
GCACAGGAUGAGAUUUAUATT against DGKZ	inactive: 0
CUCUUAUUGCUCAACGAUATT against KIF5C	inactive: 0.283
GCAUGAACAUUACGGAUAUTT against CARS	inactive: 0
GCAUUGAUCAGAGAAAGAUTT against YARS	inactive: 0.0197
CGUUCGACAUCAUCACCGATT against PRKCZ	inactive: -0.175
CAUCAUCUCCUGGACUUCATT against ELK1	inactive: -0.52
GAGAGAAGCUGGUAUCUCATT against MYO18B	inactive: -0.597
GCAGCAAUAGAAUCACUAATT against FANCL	inactive: -0.0823
CGCACGGACUGUACCAUUUTT against ETV2	inactive: 0
GGUUCUAUUUGGAAUUUAUTT against HNRNPA1	inactive: 0.563
GAGUCGGCAUGUAGACUUUTT against BTBD10	inactive: 0.695
GUAAGAAACUCCGAAAUUATT against ZMAT3	inactive: 0.979
CUAAUUUCGUUACUCGAAATT against GMDS	inactive: 0
GCAAUGACUUGAUAGCUAATT against OSBP	inactive: 0.256
CCAUUCGCAUGAUGGAGAATT against FEN1	inactive: -0.316
CCCUCUAUCUCUAAAGAAATT against CD8A	inactive: 0.777
UCCUAUACGUGGUUCCUCUTT against OPN1SW	inactive: 0.32
AGGCCGUGCUCUUCACCUATT against FAAH	inactive: 0.373
UCUACAUCAUGAAGGCUGATT against TNFRSF8	inactive: 0.739
CGUGGACAUUUAUGGGUCATT against PADI3	inactive: 0.147
GGAUACAAAGCACAUAACATT against UBE2D4	inactive: 0.232

Sequence	median seed-adjusted z-score
CAAUAAGCCCAACUACAAATT against PES1	inactive: 0.44
GGACUAUGUAUUUCAGGAATT against REN	inactive: -0.48
CUAUUUUACCUUUACAAGATT against ALDH1A2	inactive: 0.564
GGACUUCUACCAGAAGUUUTT against GRK6	inactive: -0.862
CUCUAUCAGUUCCUACAUATT against IHPK3	inactive: -0.173
GCUUCGUGUUCGACUAUGATT against CSNK1G2	inactive: 0.511
UCCCAAUUCUUGAAGUAUUTT against CYP3A4	inactive: 0.633
CCACUAUCACAGAAUCCAATT against LSAMP	inactive: -0.12
AGAGAAAUAAUCAAACUGATT against RASSF4	inactive: 0.29
CGAUGUACCAGGACUACGATT against SIPA1L3	inactive: 0
AACCUUUCCUCAUCACAAATT against TPP1	inactive: -0.0334
CACGUGCGCUGAUGAGAUUTT against CRB2	inactive: 0
GCUGGAUUACUAUCAACUATT against ENTPD1	inactive: 0.567
CAUAGGGACAUAUUCUUUATT against SLC39A1	inactive: 0.658
GGUCAUGCAGAUUAUGUUATT against TUFM	active: 1.07
GAGUCUGAAGGAUACUAUUTT against PGAM1	inactive: -0.234
GAAUCUAUGGUGAAGUACATT against ATP8B4	inactive: -0.00244
CCACUUCCGGAUGACCAUUTT against GPT	inactive: -0.00224
GGAGCCGGGUUACAUCAAATT against GRIN2B	inactive: 0.0402
CAAUAUGCCUUUCUCUACATT against DNASE1L3	inactive: 0.0678
GCAGUGAUCAAAAACAGAATT against LPAR3	inactive: -0.3
CAUCAAAGAUUGCACUUCATT against TOMM34	inactive: -0.503
CGACCAUAGGGUAUGGGAATT against KCNK10	inactive: 0.239

Reformatted with bars between the fields: entries from further up.
Sequence | median seed-adjusted z-score
CGCACGGACUGUACCAUUUTT against ETV2 | inactive: 0
GUAAGAAACUCCGAAAUUATT against ZMAT3 | inactive: 0.979
AGAGAAAUAAUCAAACUGATT against RASSF4 | inactive: 0.29

The list continues.

Sequence	median seed-adjusted z-score
AUAUAACACUUCUACUCUUTT against CMA1	inactive: -0.0475
AACUUUAGAGCACAAUUUUTT against ZNF33A	inactive: 0.0628
CCAGCAAUGAGAAAAAUCUTT against HOXA2	inactive: 0.335
CAAGUGUUAUGACAUCGUUTT against PRKAG2	inactive: -0.367
CAGCUGUUCCCGUCUACAATT against ZDHHC8	inactive: 0
GAGAUGAGAAUGUUUUAAATT against IKZF3	inactive: 0.0181
GCCGCUUUGUAGUUCAGAATT against HSPH1	inactive: -0.314
GAGGAGCUGUCACUACGCATT against MYOZ3	inactive: 0.16
GAAGCUAUAUUUUCCGGUUTT against CBLB	inactive: 0
CUCUAGGAAUGACGGAUUATT against PDGFRA	inactive: 0.0399
GAACUUGUCGCAUUGCGUUTT against TRIB2	inactive: 0
CCCUCAUCAAGAACUUUCATT against S100A14	inactive: 0.0172
CAGUAGUUAUAAUACUAGATT against SLC30A4	inactive: 0.158
GCAUCAAGAUUUUCCGCUUTT against SLC26A2	active: -1.25
GCAUGAUUCCAAUAGAGAATT against ACOT4	inactive: -0.158
GCUCCGUCCUUUUCAAAGATT against DHX37	inactive: -0.126
GAGUCAGAAGUUUACCAAATT against AFP	inactive: -0.144
GGACUAUUCUAUCUGCUCATT against PUS3	inactive: 0.584
CAGCACCCGUGAAAAGCAATT against CHTF18	inactive: 0.371
UGACUAUUGCGACUGCAAATT against PRKCSH	inactive: -0.0512
GACCGAUGGAGGUAGUAUATT against GLI3	inactive: 0.143
CAGUCUUCACUGACAACUATT against VIP	active: 1.52
CCAAGACCGGUUCAGCUUUTT against B4GALNT3	inactive: -0.021
